Experimental data from patent US20230339834A1, “CHLORINATED FLUOROAROMATICS AND METHODS OF USING SAME” (3M INNOVATIVE PROPERTIES COMPANY, priority 2019, published 2023).

assay: Atmospheric lifetime from relative rate studies with hydroxyl radicals, chloromethane reference; details: reaction with hydroxyl radicals relative to CH3Cl

Row | SMILES | Atm Lifetime [yrs]
1 | F/C(=C(/C(F)(F)F)C(F)(Oc1ccccc1)C(F)(F)C(F)(F)F)C(F)(C(F)(F)F)C(F)(F)F (stereo not drawn) [CE1, (E)-((1,1,1,2,2,3,5,6,7,7,7-Undecafluoro-4,6-bis(trifluoromethyl)hept-4-en-3-yl)oxy)benzene] | 0.16
2 | FC(F)(F)C(=C(Oc1ccccc1)C(F)(F)C(F)(F)F)C(F)(F)F [CE2] | 0.27
3 | F/C(=C(/C(F)(F)F)C(F)(Oc1ccc(Cl)cc1)C(F)(F)C(F)(F)F)C(F)(C(F)(F)F)C(F)(F)F (stereo not drawn) [Ex. 1, (E)-1-chloro-4-((1,1,1,2,2,3,5,6,7,7,7-undecafluoro-4,6-bis(trifluoromethyl)hept-4-en-3-yl)oxy)benzene] | <0.3
